This passage reports binding signal results from paper PMC7819943, “Rice protein-binding microarrays: a tool to detect cis-acting elements near promoter regions in rice”.

Amino acid sequences for entries named in this document (tags omitted).
UniProt Q0JBA9, entry or part of it: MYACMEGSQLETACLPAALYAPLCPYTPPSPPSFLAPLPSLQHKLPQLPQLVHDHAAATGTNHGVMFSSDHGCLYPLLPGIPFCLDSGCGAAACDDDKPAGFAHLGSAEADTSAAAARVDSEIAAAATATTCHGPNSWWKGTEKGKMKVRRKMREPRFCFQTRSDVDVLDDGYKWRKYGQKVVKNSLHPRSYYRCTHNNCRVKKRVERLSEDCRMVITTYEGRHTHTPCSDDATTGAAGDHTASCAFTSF

The list shows a part of the results.

In the test the target is OsWRKY34 (Oryza sativa, UniProt Q0JBA9 1-250). The experiment in a line: protein-binding microarray (RPBM); PBS, 2% BSA, 51.3 ng/ul salmon testes DNA, 50 uM zinc acetate, 200 nM TF, 25 C, 1 h; high values mean tight binding. The conditions noted are these: protein: recombinant; tags: N-terminal polyhistidine and DsRed monomer fusion (pET32a); label: CyDye5-dUTP incorporated in the synthesized complementary strand; 3' TTTTT single-stranded linker to array surface; dsDNA, one strand shown. The method in brief: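 Binding signal is defined as the fluorescence intensity of each feature in arbitrary units, read on an Axon 4000B scanner. Transcription factors with N-terminal polyhistidine and DsRed fusions came from E. coli BL21-CodonPlus and were purified on Ni–NTA. They were incubated at 200 nM for 1 h at 25 °C on a custom Agilent array that had been made double-stranded with Cy5-dUTP, with 50 µM zinc acetate present, and the array was washed.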
For the sequence “GAGATAATAATTTCTCGCGCTCCTTGACTGCTTCCTTTCTCGGAGTCACCTAGTGCAG”, the binding signal is 8150 fluorescence intensity (a.u.).
The value for “GGCCAAAGGATTCAGTCGTCGTGGTTTTGCCGCAAAACTCCGGAGTCACCTAGTGCAG” was 8120 fluorescence intensity (a.u.); that for “CAGAGCACACGCCCCGAACCATATGCCAACCGCCCAAACACGGAGTCACCTAGTGCAG” was 11900 fluorescence intensity (a.u.); that for “AGATGCTCTTTGCCATGCTACTACTAGTAGTTGCTTTTGCCGGAGTCACCTAGTGCAG” was 9180 fluorescence intensity (a.u.).
Turning to “CCGCGCCATCTCCACCGTCCATTCTCCATCCGAACCGCGCCGGAGTCACCTAGTGCAG”, the binding signal was 12800 fluorescence intensity (a.u.).
The value for “ACAAGGGAGCGACGGAGCGCGCGCGAGTACCGAGTTTGACCGGAGTCACCTAGTGCAG” was 8870 fluorescence intensity (a.u.); that for “CAAGTGGTATCAGAGCATTGTTCTCTTCTTTGGATTTTAACGGAGTCACCTAGTGCAG” was 9760 fluorescence intensity (a.u.).
The value for “TCCGTCCCAAAAAAAACTCAACTTAGTAGGGGTGGGGACGCGGAGTCACCTAGTGCAG” was 8280 fluorescence intensity (a.u.); that for “CTATATCATCTTCTTCTTCCCTGTCCCTTTCTCCTCGACGCGGAGTCACCTAGTGCAG” was 8230 fluorescence intensity (a.u.).
As for “GCTCTGTTAAGGGTAGAGGGGTAGGGCGGATTGAGTCTTCCGGAGTCACCTAGTGCAG”, the binding signal was 10700 fluorescence intensity (a.u.).
For “TGTCAAGGCCTTGAGAGGCCGAGAATATTCTCTCTCGGTACGGAGTCACCTAGTGCAG” the value was 12200 fluorescence intensity (a.u.); for “GGGTAGGGACGAGAATGTCGCGACACACATAATATATATACGGAGTCACCTAGTGCAG”, 8170 fluorescence intensity (a.u.); for “ATCTCGCGTTCCTTGGTTAGCCTTCACTCCTTCAGCCATGCGGAGTCACCTAGTGCAG”, 9120 fluorescence intensity (a.u.).
The value for “CTCCGTGTGCGCCACCGCCGGCCACATCCTCCCGGCGCGCCGGAGTCACCTAGTGCAG” was 13000 fluorescence intensity (a.u.).
The value for “CATGGGAGAGGGGTGTAGAATAGTTATTCTAGGGGAGGGGCGGAGTCACCTAGTGCAG” was 16300 fluorescence intensity (a.u.); that for “GCACCTGCCGAAGACCGAGTTTAGTTTTAAACTTTTTTTCCGGAGTCACCTAGTGCAG” was 8860 fluorescence intensity (a.u.); that for “ATCCCAAATCACCAATTGCATTTCACCAAAAAAAAAACCTCGGAGTCACCTAGTGCAG” was 15300 fluorescence intensity (a.u.).
As to “TGTGATGTTAAGTGTTTCTAATTCTTGTTATTATTGTATTCGGAGTCACCTAGTGCAG”, the binding signal is 8950 fluorescence intensity (a.u.).
For “GTCCTTGATGTTTTTTATGCTCTCCGTTCAGTGAATTATGCGGAGTCACCTAGTGCAG” the value was 11100 fluorescence intensity (a.u.); for “CTCACCCTGTGTCACTCTCTCGTTCTTTCTCTCCCAGCCGCGGAGTCACCTAGTGCAG”, 11700 fluorescence intensity (a.u.); for “AACAGGTGTGGTTTGTTTGTTTCCATTTTAAATTCTGTGACGGAGTCACCTAGTGCAG”, 9420 fluorescence intensity (a.u.).
With “AGAGTTGAGGTCAGTTGCATTTCTTTCTTAAATACTCCCTCGGAGTCACCTAGTGCAG”, the binding signal is 8730 fluorescence intensity (a.u.).
Turning to “ATTTTTCCTTTTTTTTTTTTGAGTTGTGTATTCCTTACTTCGGAGTCACCTAGTGCAG”, the binding signal is 9900 fluorescence intensity (a.u.).
Take “TCCACCACCGCCTGCCTCCATCCACCTCCACTGCAACCTCCGGAGTCACCTAGTGCAG”: the binding signal was 8120 fluorescence intensity (a.u.).
The value for “CATCCTGTAATTTCGCGCGCGGCATCTCTTTCTTTCGCGTCGGAGTCACCTAGTGCAG” was 9240 fluorescence intensity (a.u.); that for “ATACATGCACCCTTATACTCGTCGAACGTAATATTATACACGGAGTCACCTAGTGCAG” was 9350 fluorescence intensity (a.u.).
The value for “CGTTTCTGCCGTGCTCGCCTCTGCCTCTCTCTCTCTCATCCGGAGTCACCTAGTGCAG” was 14000 fluorescence intensity (a.u.); that for “CTTGTTAAACTATTTAATATGGTTTTATGCTGTTTTGTTTCGGAGTCACCTAGTGCAG” was 9180 fluorescence intensity (a.u.); that for “AATGGCTAGCGTATAATCTGTCTTGGAATCACTTTGCTGCCGGAGTCACCTAGTGCAG” was 8120 fluorescence intensity (a.u.).
The value for “ATCGTGGAGGTTTTATATCAGCTAGTCACTTGGTTTACCGCGGAGTCACCTAGTGCAG” was 9000 fluorescence intensity (a.u.); that for “ACTTTTCCGTCACATCGTTTCAATTTCAACTAAACTTTCACGGAGTCACCTAGTGCAG” was 8920 fluorescence intensity (a.u.).
“GATTCCCAGTCCGACTCAGTGTTTCCTGTCCTCGCGCAGACGGAGTCACCTAGTGCAG”: the binding signal was 9940 fluorescence intensity (a.u.).
Take “AGTTAAAACCAAATGAATATCTGCCACGCCATTGACCAAACGGAGTCACCTAGTGCAG”: the binding signal was 8590 fluorescence intensity (a.u.).
The value for “TCCTAAACTTCTATATTTCCAAATTTGTGTTTTTACCATACGGAGTCACCTAGTGCAG” was 8600 fluorescence intensity (a.u.); that for “TATATATATATATATATATGGGTGGTGTTCTTTTCTCTGGCGGAGTCACCTAGTGCAG” was 13300 fluorescence intensity (a.u.).
The value for “ACTTATGTTTTCTCAAATTAAGTTATATTTGTTTTTTTTTCGGAGTCACCTAGTGCAG” was 9260 fluorescence intensity (a.u.).
The value for “TATTACTGGCCCAATTTTTTAGCCCATTAACGATCTGTTGCGGAGTCACCTAGTGCAG” was 9010 fluorescence intensity (a.u.).
Turning to “CATGGTGTTTGGCTGTTATTTTTTTAAAAAATATTTGTTACGGAGTCACCTAGTGCAG”, the binding signal was 9500 fluorescence intensity (a.u.).
For “ATTTTTGTTCATCTATGCGTGATTGTACTCGTCGCCCTCGCGGAGTCACCTAGTGCAG” the value was 11100 fluorescence intensity (a.u.); for “TGATCTCTTTCTTCTCGATCGAAGGCGAGCTTTGAGTCAACGGAGTCACCTAGTGCAG”, 9230 fluorescence intensity (a.u.); for “GTCTCTCTCTCACTGAACTTGTTGCTTCCGCGGCGACTGCCGGAGTCACCTAGTGCAG”, 8830 fluorescence intensity (a.u.).
For “TAAACCCAGGGCCGCTGTCTCCGCCTCCGCCTCCGCCATGCGGAGTCACCTAGTGCAG” the value was 9540 fluorescence intensity (a.u.).
